Library screening results

The chains behind the UniProt entries cited, without tags or fusion partners.
UniProt E9BF75, entry or part of it: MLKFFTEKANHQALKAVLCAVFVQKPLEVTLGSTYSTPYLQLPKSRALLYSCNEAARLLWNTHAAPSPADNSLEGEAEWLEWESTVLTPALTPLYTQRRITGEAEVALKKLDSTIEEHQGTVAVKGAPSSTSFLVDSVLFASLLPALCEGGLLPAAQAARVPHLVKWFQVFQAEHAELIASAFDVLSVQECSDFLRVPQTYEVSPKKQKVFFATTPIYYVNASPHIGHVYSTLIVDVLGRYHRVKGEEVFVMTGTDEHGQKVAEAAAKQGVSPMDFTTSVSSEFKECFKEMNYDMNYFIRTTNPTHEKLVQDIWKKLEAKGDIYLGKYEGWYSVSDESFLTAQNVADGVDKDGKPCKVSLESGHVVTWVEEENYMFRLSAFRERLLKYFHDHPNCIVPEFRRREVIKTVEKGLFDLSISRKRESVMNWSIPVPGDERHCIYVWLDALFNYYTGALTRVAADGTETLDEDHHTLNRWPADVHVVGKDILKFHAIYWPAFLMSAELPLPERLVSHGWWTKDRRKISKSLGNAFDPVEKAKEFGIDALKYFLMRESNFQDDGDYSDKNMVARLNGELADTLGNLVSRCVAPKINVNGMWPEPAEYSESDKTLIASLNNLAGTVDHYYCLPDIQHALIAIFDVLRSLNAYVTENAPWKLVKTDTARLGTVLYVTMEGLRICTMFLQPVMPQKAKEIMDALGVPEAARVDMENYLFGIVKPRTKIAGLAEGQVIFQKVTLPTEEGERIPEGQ

Data taken from ChEMBL document CHEMBL3988442, “University of Dundee, Small-Polar-MMV Screening Library” (2021).

LdMetRS: 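Primary screen of methionyl-tRNA synthetase; the read-out is not stated. Target: Methionyl-tRNA synthetase (putative), Leishmania donovani (UniProt E9BF75). The test concentration is not given. Values are per cent inhibition. Size under these conditions: about 68,000 compounds, about 24 of them at 50% or above in at least one test.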
Mtb heat-shock: 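Assay on Mycobacterium tuberculosis, filed only as a heat shock assay from Cornell; the read-out is not stated. The concentration is filed as 10 mM, unlikely as a test dose, so the dose is not known. Direction is inferred from retests: higher values go with stronger inhibition. Of about 69,000 compounds tested this way, about 930 (1.4%) reached 50% or more in at least one test.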

All values are in %. How 0% and 100% were set is not recorded. Most values in the screen are low, and negative values occur. Compounds were drawn at random from those tested, without regard to their results. A dash means the value is not listed here; it may have been measured.

SMILES | LdMetRS | Mtb heat-shock
CC(C)c1nc(-c2ccnc(N3CCNCC3)n2)no1.Cl.Cl | - | -7.834
COc1ncc(C2(O)CCN(Cc3cccs3)CC2)c(OC)n1.Cl | - | 5.051
Cc1nn(C(C)C)c(C)c1NC(=O)c1ccc(F)cc1 | 8.511 | 4.2
CCS(=O)(=O)NC[C@]12COC[C@H]1CN(CCc1ccccc1)C2 | 10.95 | -
COCCC1(CNC(=O)Nc2ccc(-n3ccnn3)cc2)CCC1 | 18.61 | 29.43
COc1ncccc1NC(=O)N(Cc1ccco1)C1CC1 | 18.75 | 5.063
CCCN1CCC(c2nc3ccc(NCc4ccccc4)cn3n2)CC1.O=C(O)C(F)(F)F.O=C(O)C(F)(F)F | - | -1.031
Cc1nc(N2CCC(C(O)c3nccn3C)CC2)c2sccc2n1 (stereo not shown) | -1.423 | -15.45
COc1cc(OC)c(CNC(=O)NCc2ccc(C#N)cc2)c(OC)c1 | 16.24 | 8.945
c1ccc(O[C@H]2CO[C@@]3(CCN(Cc4ccc5c(c4)OCO5)C3)C2)nc1 | 17.58 | -
CC(C)OCCC(=O)Nc1cccc(N2CCN(CC3CC3)CC2)c1 | 18.35 | 7.533
COc1ccc(N2CCN(CC(O)c3cc(C)ccc3C)CC2)cc1 (stereo not shown) | 12.83 | -10.95
O=C(Nc1ccc(-c2cnc(NCCO)nc2)cc1)[C@@H]1CCCCN1 | 12.86 | -16.31
CC(C)CN1CCC2(C=C(C(=O)NC3CC3)c3ccccc32)CC1 | 14.01 | -
O=C(NCc1ccco1)[C@@H]1CCO[C@@H]2CCN(C3CCOCC3)C[C@H]21 | -4.667 | -
CCc1nnc(NC(=O)CCN2CC=C(c3cnn(C)c3)CC2)s1 | 16.53 | -0.1281
CN1CCN(C(=O)[C@H]2CC[C@@H]3[C@@H](CCN3Cc3ccsc3)O2)CC1 | 16.3 | -
O=C(O)CSc1nc(-c2ccc3c(c2)CCC3)n[nH]1 | 14.1 | -10.94
CCC1COC2(CCN(C(=O)c3ccco3)CC2)C1 (stereo not shown) | 13.43 | 33.46
[H][C@]12CC[C@]([H])(CN(Cc3nc4ccccc4n3C)C1)N(CCOC)C2 | - | 78.75
CNS(=O)(=O)CC1CCCN1c1ccc(Br)cn1 (stereo not shown) | 12.88 | -14.95
O=C(O)c1ccccc1-n1cnc(CN2CCc3ccccc32)c1 | 16.49 | 10.16
CCc1nnc(CN2CCOC(Cn3cccn3)C2)o1 (stereo not shown) | 18.31 | -14.37
CCn1c(=O)n(Cc2nc(C3CC3)no2)c2ccccc21 | 13.52 | 7.4
Cc1ccc2c(n1)N(C)CCN(C(=O)NC(C)C)C2 | 13.33 | -
Cc1cccc(CN2CCC3(CC2)CN(c2cccnc2)C(=O)CO3)n1.O=C(O)C(F)(F)F.O=C(O)C(F)(F)F | - | -14.12
CCOCCCNC(=O)C1(C)CCC(=O)N1c1ccccc1OC (stereo not shown) | 11.7 | -39.12
CCCOC1CCCN(C(=O)c2csc(S(N)(=O)=O)c2)C1 (stereo not shown) | -0.2545 | 5.78
CC(C)Cc1ncc2c(n1)CN(c1cc(NC3CC3)nc(N)n1)C2 | 7.888 | 16.07
CCCS(=O)(=O)N1C[C@@H](Oc2ccccn2)[C@H]2OCCC[C@H]21 | 7.801 | -
CN(c1ccncn1)C1CC2(CCN(C(=O)c3cccs3)C2)C1 (stereo not shown) | 5.137 | -13.8
CC(=O)N1N=C(c2ccccc2)OC1C(=O)NCCOc1ccccc1 (stereo not shown) | 7.5 | 46.95
CN(Cc1cc2cc(F)ccc2[nH]1)c1cc(C2CCCNC2)ncn1 (stereo not shown) | 9.48 | 27.99
CCOC1COC2(CCN(c3ccccn3)CC2)C1 (stereo not shown) | 8.197 | -
CC(C)(C)c1ccc(C(=O)NCCCNC(=O)c2cnccn2)cc1 | 15.7 | 7.996
COc1c(CNC2(c3noc(C)n3)CCC2)c(C(C)C)nn1C | 0.2688 | -
O=C(c1scc2c1OCCO2)N1CCOC(Cc2ccc(F)cc2)C1 (stereo not shown) | 5.882 | -8.532
CCn1nc(C)c2nc(C(C)C)nc(NC)c21 | 7.286 | -10.61
CC(C)(C)c1ncc2c(n1)CN(C(=O)c1ccc3[nH]cnc3c1)C2 | 12.77 | -15.98
O=S(=O)(c1cnccc1N1CCN(CCO)CC1)N1CCOCC1 | 12.15 | -5.664
[H][C@]12CCN(C(=O)COC)CC[C@@]1([H])S(=O)(=O)N(Cc1cccnc1)C2 | - | 24.75
Cc1nc(CN2CCCC(NCc3ccsc3)C2)no1 (stereo not shown) | 4.453 | 9.633
CC(C)NC(=O)c1n[nH]c(-n2cnnc2)n1 | 9.544 | 7.364
CCOc1ccc2ccccc2c1CNCC1CCS(=O)(=O)C1 (stereo not shown) | 20.52 | -
Cc1noc(C)c1C(=O)N1C[C@@H]2CN(Cc3cccnc3)CCO[C@@H]2C1 | 10.46 | -
CCCC(NC(=O)c1cncc(C)c1)c1nnn[nH]1 (stereo not shown) | -1.592 | -38.36
O=C(O)C(=O)O.c1ccc2c(c1)SCCC2NCc1ccc(N2CCOCC2)cc1 (stereo not shown) | - | -28.16
CC(C)(C)CC(=O)N1CCCC2(CC(C(=O)Nc3ccccc3)=NO2)C1 (stereo not shown) | 3.553 | -11.74
Cc1nn(C)c(C)c1CCC(=O)N1CCN(CCn2cncn2)CC1 | 3.371 | -20.4
COCC(=O)N1CCC(c2ccc(OC)cc2)C1 (stereo not shown) | 13.15 | -23.65
COCC(=O)N1CCc2c(nnn2C)C1COCCN1CCCC1 (stereo not shown) | 8.889 | -
Cc1cc(C)n(C(=O)c2cn(C)nc2S(=O)(=O)N2CCSCC2)n1 | 19.55 | -0.7829
CN1CC(=O)N(c2ccccc2)CC12CCN(CC1CC1)C2 (stereo not shown) | 7.296 | -
COCC(=O)N1CCC(C(=O)N(C)CCCc2nccn2C)CC1 | 14.29 | 10.11
Cc1noc(C)c1CN1CCC(N(C)Cc2noc(C(C)C)n2)C1 (stereo not shown) | 6.203 | -15.9
CCCS(=O)(=O)C(C)C(=O)Nc1ccc2oc(C3CC3)nc2c1 (stereo not shown) | 14.04 | -25.89
Nc1nc2c(c3c1C(=O)NC3=O)CCC2 | 4.533 | -24.76
CCCc1cc(NC2CCc3ncnn3C2)n2ncnc2n1 (stereo not shown) | 12.32 | 12.14
CCc1ccsc1C(=O)NC(Cc1ccccc1)C(N)=O (stereo not shown) | 2.717 | -7.32
Cc1cc(NC(=O)CCc2ccsc2)n(C)n1 | 10.62 | 89.31
CCN(Cc1cccc(NC(=O)COC)c1)C(C)=O | 10.84 | -17.52
CC(c1nccs1)N(C)C(=O)c1cc(CN(C)Cc2ccccc2)on1 (stereo not shown) | 8.075 | -21.18
O=C(c1ccco1)N1CC(S(=O)(=O)c2ccc(Cl)cc2)C1 | 8.943 | 4.526
O=C(O)C(F)(F)F.[H][C@@]12CCC(=O)N(CCOC)[C@]1([H])CCN2Cc1cccc(C#N)c1 | - | -4.22
CCc1nnsc1C(=O)NCCn1nc2ccccn2c1=O | 15.56 | -10.88
CC(C)C(=O)NCC(=O)NCC1CCN(c2cnn(C)c(=O)c2)CC1 | 11.35 | 0.7092
CN(C)C(=O)C1CCCN1CCCNC(=O)c1ccccc1Cl (stereo not shown) | 16.86 | 0.7894
COCC(O)CN(C)c1ccnc2cc(F)ccc12 (stereo not shown) | 14.11 | 19.24
O=S(=O)(C1CC1)N1CCc2ncnc(-c3ccncc3)c2CC1 | 3.833 | -
CS(=O)(=O)c1ccc(OCCNCc2cccc(F)c2)cc1 | 19.5 | -41.54
O=C(c1cc[nH]n1)N1CCCC1c1cc(Nc2ccccn2)n[nH]1 (stereo not shown) | 11.61 | 2.036
Cc1cnn(CC2CCCN2Cc2cc(=O)n3ccccc3n2)c1 (stereo not shown) | 16.73 | 32.29
CN1CCCN(C(=O)NCCNc2ncccc2C#N)CC1 | 13.59 | -15.77
Cn1c(=O)oc2cc(S(=O)(=O)N3CCC(c4ccccc4)C3)c(Cl)cc21 (stereo not shown) | -51.38 | -4.593
Cc1cccc(C(=O)N2C[C@@H]3[C@H](CC(=O)NC(C)C)[C@@H]3C2)n1 | 6.667 | -
O=C(NCCCN1CCOCC1)C(OC1CCCC1)c1ccccc1 (stereo not shown) | 12.58 | -6.496
CCc1nc(CN2CCCN(c3nn4cc(C)nc4s3)CC2)no1 | 18.62 | 6.985

Some entries from above, unchanged:

O=C(c1cc[nH]n1)N1CCCC1c1cc(Nc2ccccn2)n[nH]1 (stereo not shown) read LdMetRS: 11.61%; Mtb heat-shock: 2.036%.
CCCS(=O)(=O)C(C)C(=O)Nc1ccc2oc(C3CC3)nc2c1 (stereo not shown) read LdMetRS: 14.04%; Mtb heat-shock: -25.89%.
CCOCCCNC(=O)C1(C)CCC(=O)N1c1ccccc1OC (stereo not shown) read LdMetRS: 11.7%; Mtb heat-shock: -39.12%.
O=S(=O)(c1cnccc1N1CCN(CCO)CC1)N1CCOCC1 read LdMetRS: 12.15%; Mtb heat-shock: -5.664%.
CN1CC(=O)N(c2ccccc2)CC12CCN(CC1CC1)C2 (stereo not shown) read LdMetRS: 7.296%.